Data set [1] concerns the target T1, HNF-3alpha (Mus musculus) (UniProt P35582).
T1 sequence (looked up, limits assumed): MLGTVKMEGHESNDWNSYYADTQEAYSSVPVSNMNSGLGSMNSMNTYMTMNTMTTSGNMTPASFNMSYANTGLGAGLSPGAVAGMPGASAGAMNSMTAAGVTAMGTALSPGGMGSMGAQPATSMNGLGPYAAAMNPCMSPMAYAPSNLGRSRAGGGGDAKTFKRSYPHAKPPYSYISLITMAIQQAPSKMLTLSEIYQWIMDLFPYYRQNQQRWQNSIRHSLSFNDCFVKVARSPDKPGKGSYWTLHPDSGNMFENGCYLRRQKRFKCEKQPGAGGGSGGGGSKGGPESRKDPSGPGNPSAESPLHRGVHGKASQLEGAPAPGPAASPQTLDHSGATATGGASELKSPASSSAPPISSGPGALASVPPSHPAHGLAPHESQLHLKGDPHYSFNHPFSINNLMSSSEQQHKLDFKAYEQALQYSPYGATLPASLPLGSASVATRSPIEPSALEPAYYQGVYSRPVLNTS
As to the kind of experiment: competition with a labelled probe. The note with it: 1000-fold excess competes complex C; protein in an extract; protein details: endogenous, MLE-15 nuclear extract.

The target of data set [2] is T2, HNF-3beta (Mus musculus) (UniProt P35583).
T2 sequence (looked up, limits assumed): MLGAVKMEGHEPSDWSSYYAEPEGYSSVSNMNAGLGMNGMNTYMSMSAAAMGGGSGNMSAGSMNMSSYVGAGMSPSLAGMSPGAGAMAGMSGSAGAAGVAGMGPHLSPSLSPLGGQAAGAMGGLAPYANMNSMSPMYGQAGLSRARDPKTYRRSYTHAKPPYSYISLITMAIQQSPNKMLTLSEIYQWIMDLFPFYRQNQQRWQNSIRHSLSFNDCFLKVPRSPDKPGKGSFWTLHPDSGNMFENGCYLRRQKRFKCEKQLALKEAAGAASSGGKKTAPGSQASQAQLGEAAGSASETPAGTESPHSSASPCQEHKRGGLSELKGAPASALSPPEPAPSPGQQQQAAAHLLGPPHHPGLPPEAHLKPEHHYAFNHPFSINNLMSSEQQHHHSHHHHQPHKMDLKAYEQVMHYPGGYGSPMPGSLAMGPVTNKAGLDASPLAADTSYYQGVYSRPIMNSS
As to the kind of experiment: competition with a labelled probe. The conditions noted are these: 1000-fold excess competes complex D; protein in an extract; protein details: endogenous, MLE-15 nuclear extract.

Data set [3] concerns the target T1, HNF-3alpha (Mus musculus). The experiment in a line: EMSA. The note with it: protein in an extract, protein details: endogenous, MLE-15 nuclear extract, label: 32P.
The target of data set [4] is T2, HNF-3beta (Mus musculus). The experiment in a line: EMSA. The conditions noted are these: protein in an extract, protein details: endogenous, MLE-15 nuclear extract, label: 32P. On the technique in general: A gel shift assay detects complexes by their altered migration in electrophoresis.
Data set [5] deals with TTF-1 (Homo sapiens) (UniProt P43699). The experiment in a line: EMSA. The note with it: anti-TTF-1 supershift, data not shown; protein in an extract; protein details: endogenous, H441 nuclear extract; label: 32P.
The target in data set [6] is TTF-1 (Mus musculus) (UniProt P50220). As to the kind of experiment: EMSA. The conditions noted are these: protein in an extract, protein details: endogenous, MLE-15 nuclear extract.
The target in data set [7] is T3, TTF-1 homeodomain (TTF-1 HD) (Rattus norvegicus) (UniProt P23441).
T3 sequence (looked up, limits assumed): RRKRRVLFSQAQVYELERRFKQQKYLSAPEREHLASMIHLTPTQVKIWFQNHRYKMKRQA
The experiment in a line: EMSA. The conditions noted are these: purified recombinant protein, protein details: bacterially expressed homeodomain fragment, label: 32P.

The target in data set [8] is T4, HNF-3alpha (Homo sapiens) (UniProt P55317).
T4 sequence (looked up, limits assumed): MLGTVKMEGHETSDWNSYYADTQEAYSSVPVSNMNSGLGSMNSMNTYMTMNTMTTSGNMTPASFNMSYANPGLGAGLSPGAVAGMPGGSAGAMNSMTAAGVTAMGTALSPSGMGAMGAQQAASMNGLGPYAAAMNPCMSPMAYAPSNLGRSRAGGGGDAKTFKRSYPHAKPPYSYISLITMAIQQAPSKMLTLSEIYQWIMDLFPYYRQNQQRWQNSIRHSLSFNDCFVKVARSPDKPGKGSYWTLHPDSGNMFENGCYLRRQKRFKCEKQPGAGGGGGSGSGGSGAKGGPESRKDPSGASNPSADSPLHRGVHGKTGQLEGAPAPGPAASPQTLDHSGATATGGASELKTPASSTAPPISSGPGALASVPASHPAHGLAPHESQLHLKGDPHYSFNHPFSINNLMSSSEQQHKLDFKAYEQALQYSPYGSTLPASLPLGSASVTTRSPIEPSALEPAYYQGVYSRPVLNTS
As to the kind of experiment: EMSA. The conditions noted are these: H441 formed only complex C; protein in an extract; protein details: endogenous, H441 nuclear extract; label: 32P.

The target in data set [9] is T5, HNF-3gamma (Mus musculus) (UniProt P35584).
T5 sequence (looked up, limits assumed): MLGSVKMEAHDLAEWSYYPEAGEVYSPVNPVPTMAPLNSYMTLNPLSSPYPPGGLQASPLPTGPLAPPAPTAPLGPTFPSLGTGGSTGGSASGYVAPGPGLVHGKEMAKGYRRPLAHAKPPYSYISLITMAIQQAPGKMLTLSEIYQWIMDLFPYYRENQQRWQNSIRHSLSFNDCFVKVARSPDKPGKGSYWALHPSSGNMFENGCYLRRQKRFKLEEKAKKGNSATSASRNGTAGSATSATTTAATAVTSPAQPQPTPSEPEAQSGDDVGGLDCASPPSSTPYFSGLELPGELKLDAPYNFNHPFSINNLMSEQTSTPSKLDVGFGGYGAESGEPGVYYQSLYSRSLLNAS
The experiment in a line: EMSA. The conditions noted are these: antibody had no effect; not expressed in lung; protein in an extract; protein details: MLE-15 nuclear extract; label: 32P.

The mark [10] stands for this setting: variant of hSP-B -439/-331 enhancer.
The mark [11] stands for this setting: single complex as probe, 100-fold excess competes slightly less than f1, variant of SPB-f1.
The mark [12] stands for this setting: one band, variant of SP-A probe A.

For some assays here: Where cells or extracts were used, other partners may take part. For some assays here: Negatives hold for the conditions tested. For some assays here: Tags and fusion partners may be left off the protein sequences shown. For some assays here: For at least one entry, the source does not settle the construct or the ends of the probe.

On to “ACGCAGGACTTGTTTGTTCTAG (double strand) [TGT3]”, for which the binding result in [1] and in data set [2] was “binds” each time.
Regarding “AGCACCTGGAGGGCTCTTCAGAGC (double strand) [SPB-f1]”, the binding result in [3] (anti-HNF-3alpha did not affect SPB-f1 complexes) is reported as “no binding”; in [4] (anti-HNF-3beta did not affect SPB-f1 complexes), “no binding”; in data set [5] it was “binds”; in data set [6] (anti-TTF-1 supershift, complexes A and B, label: 32P), “binds”.
As for “AGCATTGCTATCCAGTAGAGGGGGCCTGGG (double strand) [Bc mutant (Bcm)]”, the binding result in data set [7] (variant of Bc wild type) is “no binding”.
Turning to “AGCATTGCTCAAGAGTAGAGGGGGCCTGGG (double strand) [Bc wild type]”, the binding result in data set [7] (setting [10]) is on record as “binds”.
Regarding “ATCAAGCACCTGGAGGGC (double strand) [5'f1]”, the binding result in data set [6] (setting [11]) is reported as “binds”.
On to “CACTGCCCAGTCAAGTGTTCTTGA (double strand) [oligo C]”, for which the binding result in [6] is given as “binds”.
“CGACCTCAGTGTTTGTCTTTGC (double strand) [SPB-f2]”: the binding result in [8] is “binds”; in [3] (complex C, antibody interference) it was “binds”; in data set [4] (complex D, antibody interference), “binds”; in data set [9], “no binding”; in data set [6] (label: 32P), “no binding”.
As for “GCCACCCTCAAGGTTCTAAGTGCTCTTCTTGTTAAGTGCTCTGAAGGAAC (double strand) [SP-A probe A]”, the binding result in [7] (four bands) was “binds”.
As to “GCCAGGCAGGAAGCTCTCAAGAGCATTG (double strand) [Bb wild type]”, the binding result in data set [7] (setting [10]) was “binds”.
As to “GCCAGGTAGGAAGCTCTATCCAGCATTG (double strand) [Bb mutant (Bbm)]”, the binding result in data set [7] (variant of Bb wild type) is “no binding”.
For “GGGCTCTTCAGAGCAAAG (double strand) [3'f1]”, in [6] (setting [11]), the binding result was “binds”.
On to “GTGCCACCCTCAAGGTTCTAAGTG (double strand) [SP-A probe C]”, for which the binding result was “binds” in data set [6] (18 h exposure, label: 32P, variant of SP-A probe A) and “binds” in [7] (setting [12]).
With “GTTAAGTGCTCTGAAGGAACCTG (double strand) [SP-A probe D]”, the binding result is “binds” in [6] (strong, 30 min exposure, label: 32P, variant of SP-A probe A) and “binds” in [7] (setting [12]).
On to “TAGGGGGATCCCTGGGTTAAGAGCTAGGCA (double strand) [Ba mutant (Bam)]”, for which the binding result in data set [7] (variant of Ba wild type) was “no binding”.
For “TCTAAGTGCTCTTC (double strand) [SP-A probe E]”, the binding result in data set [6] (lowest affinity site 2, 24 h exposure, label: 32P, variant of SP-A probe A) is listed as “binds”.
Take “TCTAAGTGCTCTTCTTGTTAAGTGCTCTGA (double strand) [SP-A probe B]”: the binding result in data set [6] (anti-TTF-1 supershift assay, label: 32P, variant of SP-A probe A) is listed as “binds”; in [7] (two bands, variant of SP-A probe A) it was “binds”.
With “TCTGATTATTGACTTAGTCAAGCG (double strand) [TTR-S]”, the binding result in [1] and in data set [2] was “binds” in each case.

The record behind these values is patent publication US20010016352, “NUCLEIC ACID SEQUENCES CONTROLLING LUNG CELL-SPECIFIC GENE EXPRESSION” (published 2001).
